In assay [1] the test system is Danio rerio larva rod photoreceptor outer segment. Kind of assay: rod outer segment growth distance Dg, difference from same-week DMSO control mean; higher = more outer segment growth. The conditions noted are these: 20 µM; treatment time: 4 days (6-10 dpf).
Assay [2] shares this test system. Kind of assay: rod outer segment shedding distance Ds, difference from same-week DMSO control mean; higher = less outer segment shedding. The conditions noted are these: 20 µM; treatment time: 4 days (6-10 dpf).

Structures can show the parent of a compound that is named as a salt. ± gives the uncertainty stated by the source. This is one part of the list. Baselines shift from plate to plate; read single values as rough.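 A heat-shock-induced fluorescent stripe was set in larval rod outer segments at 6 dpf. Shedding distance ran from stripe to outer segment tip, measured by confocal stacks in about three fish per compound. Controls: 0.2% DMSO vehicle. Flagged compounds showed ≥20% change from same-week control, p < 0.001 (Dunnett test on mixed-effects models).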

Consider `O=C1NC(=O)C(c2ccccc2[N+](=O)[O-])=C1Nc1ccc(O)c(Cl)c1`, for which the “rod outer segment growth distance Dg” value in assay [1] was -0.12 ± 0.14 um. The “rod outer segment shedding distance Ds” value in assay [2] was -0.6 ± 0.11 um.
`C[C@H](O)[C@H](O)[C@@H](O)[C@@H](O)C=O` [L-(+)-Rhamnose Monohydrate]: the “rod outer segment growth distance Dg” value in assay [1] came out at 0.64 ± 0.31 um. The “rod outer segment shedding distance Ds” value in assay [2] stood at 0.07 ± 0.29 um.
For `CCCOc1ccc(C(=O)OCCN(CC)CC)cc1N` [Proparacaine HCl], in that order: 0.98 ± 0.28 um and -0.54 ± 0.33 um.
As to `C=CC[C@@H]1/C=C(\C)C[C@H](C)C[C@H](OC)[C@H]2O[C@@](O)(C(=O)C(=O)N3CCCC[C@H]3C(=O)O[C@H](/C(C)=C/[C@@H]3CC[C@@H](O)[C@H](OC)C3)[C@H](C)[C@@H](O)CC1=O)[C@H](C)C[C@@H]2OC` [Tacrolimus (FK506)], the “rod outer segment growth distance Dg” value in assay [1] is -0.29 ± 0.15 um. Besides, in assay [2], the “rod outer segment shedding distance Ds” value was -0.07 ± 0.13 um.
As for `CN(C)CCc1c[nH]c2ccc(Cn3cncn3)cc12` [Rizatriptan Benzoate], the “rod outer segment growth distance Dg” value in assay [1] turned out to be 0.32 ± 0.15 um. For the same compound, the “rod outer segment shedding distance Ds” value in assay [2] is 0.26 ± 0.14 um.
As for `N=C(N)NC(=N)NCCc1ccccc1` [Phenformin HCl], the “rod outer segment growth distance Dg” value in assay [1] is -0.91 ± 0.21 um. Further, the “rod outer segment shedding distance Ds” value in assay [2] turned out to be 0.35 ± 0.19 um.
In the case of `CC(S)C(=O)NCC(=O)O` (stereo not given) [Tiopronin], in assay [1], the “rod outer segment growth distance Dg” value is 1.04 ± 0.23 um. In addition, the “rod outer segment shedding distance Ds” value in assay [2] is -0.43 ± 0.3 um.
On to `CS(=O)(=O)c1ccc([C@@H](O)[C@@H](CO)NC(=O)C(Cl)Cl)cc1` [Thiamphenicol], for which the “rod outer segment growth distance Dg” value in assay [1] was -0.08 ± 0.28 um. Besides, the “rod outer segment shedding distance Ds” value in assay [2] was -0.1 ± 0.16 um.
As to `C[C@H]1C[C@@H]2[C@H]([C@@H](O)C[C@@]3(C)[C@H]2CC[C@]3(O)C(=O)CO)[C@@]2(C)C=CC(=O)C=C12` [Methylprednisolone], the “rod outer segment growth distance Dg” value in assay [1] is -0.58 ± 0.22 um. Also, the “rod outer segment shedding distance Ds” value in assay [2] was -0.15 ± 0.18 um.
As to `CCCNC(=O)Nc1ccc(Oc2ncnc3cc(OC)c(OC)cc23)cc1Cl`, the “rod outer segment growth distance Dg” value in assay [1] is -0.34 ± 0.18 um. In addition, in assay [2], the “rod outer segment shedding distance Ds” value turned out to be 0.27 ± 0.21 um.
For the compound `C#Cc1cccc(Nc2ncnc3cc(OCCOC)c(OCCO)cc23)c1`, the “rod outer segment growth distance Dg” value in assay [1] was 0.57 ± 0.24 um. Besides, the “rod outer segment shedding distance Ds” value in assay [2] is -0.15 ± 0.35 um.
Take `CC1(C)CC(=O)c2c(C(F)(F)F)nn(-c3ccc(C(N)=O)c(N[C@H]4CC[C@H](OC(=O)CN)CC4)c3)c2C1`: in assay [1], the “rod outer segment growth distance Dg” value is -0.36 ± 0.17 um. In assay [2], the “rod outer segment shedding distance Ds” value amounted to 0.01 ± 0.12 um.
On to `COc1ccc(-c2coc3cc(O)ccc3c2=O)cc1` [Formononetin], for which the “rod outer segment growth distance Dg” value in assay [1] is 0.02 ± 0.29 um. Moreover, the “rod outer segment shedding distance Ds” value in assay [2] worked out at 0.33 ± 0.26 um.
For `COc1ccc(Cn2ccc3ccc(C(=O)NO)cc32)cc1`, in that order: 0.81 ± 0.48 um and -1.55 ± 0.37 um.
The like results for `NC(=O)OCC(COC(N)=O)c1ccccc1` [Felbamate] were, in that order, 1.83 ± 0.19 um and -0.35 ± 0.2 um.
For the compound `Cc1cccc(-c2nn3c(c2-c2ccnc4ccc(C(N)=O)cc24)CCC3)n1`, the “rod outer segment growth distance Dg” value in assay [1] was -0.26 ± 0.24 um. The “rod outer segment shedding distance Ds” value in assay [2] was -0.13 ± 0.28 um.
For `CC(=O)OCC(=O)[C@@]1(O)CC[C@H]2[C@@H]3CCC4=CC(=O)CC[C@]4(C)[C@H]3C(=O)C[C@@]21C` [Cortisone acetate], in that order: -1.52 ± 0.22 um and -0.4 ± 0.14 um.
The like results for `Nc1ncn([C@H]2C[C@H](O)[C@@H](CO)O2)c(=O)n1` [Decitabine] were, in that order, 0.31 ± 0.17 um and -1.54 ± 0.23 um.
`CN1CCN(CCOc2cc(OC3CCOCC3)c3c(Nc4c(Cl)ccc5c4OCO5)ncnc3c2)CC1` [Saracatinib (AZD0530)]: the “rod outer segment growth distance Dg” value in assay [1] is -1.69 ± 0.23 um. Besides, the “rod outer segment shedding distance Ds” value in assay [2] was -1.07 ± 0.28 um.
Turning to `Nc1ccc(S(=O)(=O)Nc2ccccn2)cc1` [Sulfapyridine], in assay [1], the “rod outer segment growth distance Dg” value is -0.46 ± 0.21 um. In addition, the “rod outer segment shedding distance Ds” value in assay [2] was found to be 0.06 ± 0.18 um.
As to `NC(=O)c1cn(Cc2c(F)cccc2F)nn1` [Rufinamide], in assay [1], the “rod outer segment growth distance Dg” value was -0.32 ± 0.23 um. For the same compound, in assay [2], the “rod outer segment shedding distance Ds” value is -0.62 ± 0.2 um.
As to `NC(=O)c1ccc(I)c([N+](=O)[O-])c1` [Iniparib (BSI-201)], in assay [1], the “rod outer segment growth distance Dg” value is -0.87 ± 0.14 um. For the same compound, in assay [2], the “rod outer segment shedding distance Ds” value was -0.46 ± 0.28 um.
As for `CNC[C@@H](O)c1ccc(O)c(O)c1` [L-Adrenaline], the “rod outer segment growth distance Dg” value in assay [1] is -0.31 ± 0.24 um. Moreover, the “rod outer segment shedding distance Ds” value in assay [2] is 0.96 ± 0.41 um.
The like results for `O=C(Nc1cccc2c(=O)cc(-c3nnn[nH]3)oc12)c1ccc(OCCCCc2ccccc2)cc1` [Pranlukast] were, in that order, -0.66 ± 0.16 um and -0.17 ± 0.28 um.
For the compound `Cc1nnc(C(=O)NC(C)(C)c2nc(C(=O)NCc3ccc(F)cc3)c(O)c(=O)n2C)o1` [Raltegravir (MK-0518)], the “rod outer segment growth distance Dg” value in assay [1] is -0.52 ± 0.28 um. The “rod outer segment shedding distance Ds” value in assay [2] is -0.73 ± 0.3 um.
For `CNC(=O)c1ccc(C)c(-n2c(C)cc(OCc3ccc(F)cc3F)c(Br)c2=O)c1`, in that order: -0.34 ± 0.16 um and -0.19 ± 0.12 um.
For the compound `CC(C)=CCC[C@](C)(O[C@@H]1O[C@H](CO[C@@H]2OC[C@@H](O)[C@H](O)[C@H]2O)[C@@H](O)[C@H](O)[C@H]1O)[C@H]1CC[C@]2(C)[C@@H]1[C@H](O)C[C@@H]1[C@@]3(C)CC[C@H](O[C@@H]4O[C@H](CO)[C@@H](O)[C@H](O)[C@H]4O)C(C)(C)[C@@H]3CC[C@]12C` [Gynostemma Extract], in assay [1], the “rod outer segment growth distance Dg” value is 0.52 ± 0.29 um. Besides, the “rod outer segment shedding distance Ds” value in assay [2] is -0.51 ± 0.36 um.
With `CCCCCCCCCCCC1=C(O)C(=O)C=C(O)C1=O` [Embelin], the “rod outer segment growth distance Dg” value in assay [1] is -0.47 ± 0.19 um. The “rod outer segment shedding distance Ds” value in assay [2] was found to be 0.04 ± 0.13 um.
For `Nc1nc(N)nc(-c2cc(Cl)ccc2Cl)n1` [Irsogladine], the “rod outer segment growth distance Dg” value in assay [1] turned out to be 0.9 ± 0.23 um. The “rod outer segment shedding distance Ds” value in assay [2] was -1.01 ± 0.29 um.
For `Oc1cc(O)c(Cl)cn1` [Gimeracil], in that order: 0.19 ± 0.23 um and -0.67 ± 0.24 um.
Consider `COC(=O)C1=C(C)NC(C)=C(C(=O)OC)C1c1ccccc1[N+](=O)[O-]` [Nifedipine], for which, in assay [1], the “rod outer segment growth distance Dg” value was 0.97 ± 0.25 um. Besides, the “rod outer segment shedding distance Ds” value in assay [2] is -0.29 ± 0.16 um.
Regarding `CC(/C=C1\SC(=S)N(CC(=O)O)C1=O)=C\c1ccccc1` [Epalrestat], the “rod outer segment growth distance Dg” value in assay [1] was found to be 0.55 ± 0.25 um. The “rod outer segment shedding distance Ds” value in assay [2] was -0.03 ± 0.26 um.
For `Nc1ccc(S(=O)(=O)Nc2ncccn2)cc1` [Sulfadiazine], the “rod outer segment growth distance Dg” value in assay [1] was determined as 1.11 ± 0.25 um. Further, the “rod outer segment shedding distance Ds” value in assay [2] is -0.4 ± 0.14 um.
On to `CCc1c2c(nc3ccc(O)cc13)-c1cc3c(c(=O)n1C2)COC(=O)[C@]3(O)CC`, for which, in assay [1], the “rod outer segment growth distance Dg” value is 0.87 ± 0.16 um. In addition, in assay [2], the “rod outer segment shedding distance Ds” value is -0.04 ± 0.14 um.
For `Cc1cc(-c2ccc(CC(=O)Nc3ccc(-c4cccnc4)cc3)cc2)ccn1`, the “rod outer segment growth distance Dg” value in assay [1] was -1.14 ± 0.22 um. The “rod outer segment shedding distance Ds” value in assay [2] is -0.15 ± 0.15 um.

The values above are taken from the supplement of paper PMC6143611.
